Reference: the supplement of paper PMC7666118
The list shows a part of the results.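 How the source made its calls: active = dose-dependent thermal stabilisation significant by F-test of dose-response against flat model at 10% FDR; inactive = not significant.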

The chains behind the UniProt entries cited, without tags or fusion partners. Where a name states a change or a piece, a line headed by the entry shows the natural chain unless it says otherwise.
UniProt Q96IU2: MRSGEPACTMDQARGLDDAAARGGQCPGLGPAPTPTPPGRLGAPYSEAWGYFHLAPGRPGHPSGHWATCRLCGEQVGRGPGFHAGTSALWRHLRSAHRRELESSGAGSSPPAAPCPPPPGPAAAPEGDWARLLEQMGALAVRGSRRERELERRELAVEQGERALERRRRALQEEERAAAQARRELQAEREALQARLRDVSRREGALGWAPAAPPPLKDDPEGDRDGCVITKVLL
UniProt Q9H977: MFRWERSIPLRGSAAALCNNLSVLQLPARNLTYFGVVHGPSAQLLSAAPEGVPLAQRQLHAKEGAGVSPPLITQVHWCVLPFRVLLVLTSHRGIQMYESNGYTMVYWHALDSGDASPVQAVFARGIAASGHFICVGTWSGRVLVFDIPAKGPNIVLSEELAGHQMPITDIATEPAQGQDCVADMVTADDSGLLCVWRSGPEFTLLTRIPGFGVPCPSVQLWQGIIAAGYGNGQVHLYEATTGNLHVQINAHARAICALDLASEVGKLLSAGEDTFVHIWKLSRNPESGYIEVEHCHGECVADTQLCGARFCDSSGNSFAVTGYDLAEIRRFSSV
UniProt Q15906, whole entry: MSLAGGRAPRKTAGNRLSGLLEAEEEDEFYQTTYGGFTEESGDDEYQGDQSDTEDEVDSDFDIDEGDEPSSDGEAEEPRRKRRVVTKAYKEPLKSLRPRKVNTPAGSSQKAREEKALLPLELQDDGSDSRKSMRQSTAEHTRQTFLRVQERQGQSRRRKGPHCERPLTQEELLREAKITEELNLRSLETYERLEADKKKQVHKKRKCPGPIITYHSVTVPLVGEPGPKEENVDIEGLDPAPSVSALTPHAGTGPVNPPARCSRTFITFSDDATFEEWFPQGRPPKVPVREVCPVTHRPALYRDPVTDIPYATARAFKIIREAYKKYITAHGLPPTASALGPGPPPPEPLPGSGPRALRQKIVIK
UniProt O95292, whole entry: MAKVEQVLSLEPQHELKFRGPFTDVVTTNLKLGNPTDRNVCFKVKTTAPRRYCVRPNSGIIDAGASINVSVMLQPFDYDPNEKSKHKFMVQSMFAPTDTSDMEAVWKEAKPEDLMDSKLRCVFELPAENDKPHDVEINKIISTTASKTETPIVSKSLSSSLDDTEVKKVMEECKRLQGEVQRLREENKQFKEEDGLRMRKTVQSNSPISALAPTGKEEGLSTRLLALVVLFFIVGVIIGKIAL
UniProt Q15853: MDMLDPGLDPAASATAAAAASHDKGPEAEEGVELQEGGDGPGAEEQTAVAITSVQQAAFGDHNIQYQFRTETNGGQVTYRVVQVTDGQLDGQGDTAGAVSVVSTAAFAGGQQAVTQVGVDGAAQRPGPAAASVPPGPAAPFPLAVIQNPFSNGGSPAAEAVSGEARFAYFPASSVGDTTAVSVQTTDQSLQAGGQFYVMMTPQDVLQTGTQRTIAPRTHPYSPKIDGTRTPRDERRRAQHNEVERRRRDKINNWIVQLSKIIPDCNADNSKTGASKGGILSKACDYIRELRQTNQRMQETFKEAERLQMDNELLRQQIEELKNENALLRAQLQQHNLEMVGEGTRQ
UniProt Q92890: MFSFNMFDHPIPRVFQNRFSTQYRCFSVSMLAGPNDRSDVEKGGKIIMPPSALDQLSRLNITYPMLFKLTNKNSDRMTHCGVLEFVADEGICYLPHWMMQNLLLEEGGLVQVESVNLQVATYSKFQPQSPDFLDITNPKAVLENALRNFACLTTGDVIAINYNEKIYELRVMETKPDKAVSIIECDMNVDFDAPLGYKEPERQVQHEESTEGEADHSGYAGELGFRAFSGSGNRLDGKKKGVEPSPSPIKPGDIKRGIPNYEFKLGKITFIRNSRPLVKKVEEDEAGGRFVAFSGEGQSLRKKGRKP
UniProt P11172: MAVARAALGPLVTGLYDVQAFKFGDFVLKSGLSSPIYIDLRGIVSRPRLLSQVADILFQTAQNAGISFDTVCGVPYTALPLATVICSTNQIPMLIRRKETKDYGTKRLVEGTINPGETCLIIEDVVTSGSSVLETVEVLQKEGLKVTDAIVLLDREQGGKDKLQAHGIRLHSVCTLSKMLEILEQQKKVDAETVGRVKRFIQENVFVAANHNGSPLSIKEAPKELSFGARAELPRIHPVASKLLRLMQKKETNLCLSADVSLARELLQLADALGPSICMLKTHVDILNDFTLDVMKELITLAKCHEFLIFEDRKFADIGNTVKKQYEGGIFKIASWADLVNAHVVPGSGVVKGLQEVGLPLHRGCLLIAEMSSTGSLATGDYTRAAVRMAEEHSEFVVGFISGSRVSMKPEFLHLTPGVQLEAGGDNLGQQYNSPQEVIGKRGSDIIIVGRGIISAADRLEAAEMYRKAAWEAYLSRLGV
UniProt Q96FK6: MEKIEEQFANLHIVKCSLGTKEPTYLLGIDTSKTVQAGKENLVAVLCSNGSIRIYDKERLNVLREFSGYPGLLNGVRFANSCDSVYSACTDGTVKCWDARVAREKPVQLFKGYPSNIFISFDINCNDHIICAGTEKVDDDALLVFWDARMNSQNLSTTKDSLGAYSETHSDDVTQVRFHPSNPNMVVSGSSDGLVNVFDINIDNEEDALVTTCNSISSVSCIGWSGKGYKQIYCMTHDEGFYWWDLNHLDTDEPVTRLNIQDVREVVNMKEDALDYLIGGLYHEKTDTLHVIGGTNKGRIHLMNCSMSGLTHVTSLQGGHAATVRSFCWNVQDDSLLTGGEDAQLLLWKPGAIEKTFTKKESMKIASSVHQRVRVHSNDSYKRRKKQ
UniProt Q9BTA9: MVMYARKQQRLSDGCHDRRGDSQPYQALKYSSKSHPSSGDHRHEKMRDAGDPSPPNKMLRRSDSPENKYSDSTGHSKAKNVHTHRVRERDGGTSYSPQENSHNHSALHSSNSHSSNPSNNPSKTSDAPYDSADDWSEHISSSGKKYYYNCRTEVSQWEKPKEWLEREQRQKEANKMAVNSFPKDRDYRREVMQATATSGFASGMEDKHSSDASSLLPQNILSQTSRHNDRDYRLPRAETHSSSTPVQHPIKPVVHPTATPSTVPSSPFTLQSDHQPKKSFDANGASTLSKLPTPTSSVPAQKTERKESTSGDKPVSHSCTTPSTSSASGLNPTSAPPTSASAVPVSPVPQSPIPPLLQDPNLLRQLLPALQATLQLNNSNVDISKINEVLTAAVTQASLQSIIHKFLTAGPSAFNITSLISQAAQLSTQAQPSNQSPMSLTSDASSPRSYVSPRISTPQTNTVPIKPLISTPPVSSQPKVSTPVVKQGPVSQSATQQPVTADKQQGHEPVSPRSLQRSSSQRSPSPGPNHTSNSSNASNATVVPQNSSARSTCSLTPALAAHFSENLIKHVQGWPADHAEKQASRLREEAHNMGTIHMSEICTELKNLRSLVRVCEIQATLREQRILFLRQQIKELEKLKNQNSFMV
UniProt Q7Z6J8: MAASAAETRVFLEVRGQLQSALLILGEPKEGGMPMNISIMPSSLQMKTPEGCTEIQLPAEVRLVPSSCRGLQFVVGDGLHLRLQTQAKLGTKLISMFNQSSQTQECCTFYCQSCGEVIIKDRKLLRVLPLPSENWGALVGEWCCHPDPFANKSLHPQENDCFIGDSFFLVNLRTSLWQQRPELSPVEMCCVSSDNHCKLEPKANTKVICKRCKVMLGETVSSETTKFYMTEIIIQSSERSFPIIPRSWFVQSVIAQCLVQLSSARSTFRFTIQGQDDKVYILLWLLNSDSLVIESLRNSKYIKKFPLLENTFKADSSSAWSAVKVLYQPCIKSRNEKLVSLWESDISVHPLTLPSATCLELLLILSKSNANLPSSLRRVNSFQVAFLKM
UniProt Q9UIA9: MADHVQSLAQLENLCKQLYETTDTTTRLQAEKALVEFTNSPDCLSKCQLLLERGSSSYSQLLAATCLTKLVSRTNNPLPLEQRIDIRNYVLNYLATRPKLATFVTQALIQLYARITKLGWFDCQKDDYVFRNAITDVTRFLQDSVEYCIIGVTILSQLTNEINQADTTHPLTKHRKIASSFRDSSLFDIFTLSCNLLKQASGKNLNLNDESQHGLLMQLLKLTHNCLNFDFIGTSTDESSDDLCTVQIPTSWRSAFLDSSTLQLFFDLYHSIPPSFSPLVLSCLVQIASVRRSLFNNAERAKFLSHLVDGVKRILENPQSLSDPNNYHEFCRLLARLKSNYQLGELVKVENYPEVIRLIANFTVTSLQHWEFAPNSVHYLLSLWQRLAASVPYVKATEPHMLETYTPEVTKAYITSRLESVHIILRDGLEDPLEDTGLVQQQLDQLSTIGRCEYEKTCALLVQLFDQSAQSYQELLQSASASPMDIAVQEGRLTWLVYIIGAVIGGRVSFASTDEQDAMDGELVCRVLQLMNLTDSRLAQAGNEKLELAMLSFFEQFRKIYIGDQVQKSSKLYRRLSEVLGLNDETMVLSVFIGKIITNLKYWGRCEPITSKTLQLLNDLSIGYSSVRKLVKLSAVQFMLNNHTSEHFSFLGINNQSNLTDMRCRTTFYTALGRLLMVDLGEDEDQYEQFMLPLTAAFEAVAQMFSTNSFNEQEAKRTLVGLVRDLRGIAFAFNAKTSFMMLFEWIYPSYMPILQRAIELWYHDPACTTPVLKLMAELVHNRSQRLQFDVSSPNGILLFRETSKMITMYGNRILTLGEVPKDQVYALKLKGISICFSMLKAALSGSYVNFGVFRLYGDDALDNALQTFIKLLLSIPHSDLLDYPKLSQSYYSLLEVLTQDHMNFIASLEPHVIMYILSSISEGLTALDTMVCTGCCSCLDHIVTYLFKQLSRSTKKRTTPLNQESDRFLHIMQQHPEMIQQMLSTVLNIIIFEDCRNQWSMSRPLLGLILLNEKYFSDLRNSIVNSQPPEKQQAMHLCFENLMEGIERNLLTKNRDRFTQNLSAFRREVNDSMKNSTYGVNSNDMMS
UniProt Q6GPH4: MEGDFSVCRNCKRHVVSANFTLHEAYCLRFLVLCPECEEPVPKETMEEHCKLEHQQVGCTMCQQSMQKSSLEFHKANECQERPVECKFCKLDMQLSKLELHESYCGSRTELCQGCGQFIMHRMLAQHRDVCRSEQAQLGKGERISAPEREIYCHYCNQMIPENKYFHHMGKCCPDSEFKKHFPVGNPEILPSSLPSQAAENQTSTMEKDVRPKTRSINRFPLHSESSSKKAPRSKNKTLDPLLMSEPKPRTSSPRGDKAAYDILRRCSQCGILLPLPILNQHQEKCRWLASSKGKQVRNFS
UniProt Q96T88: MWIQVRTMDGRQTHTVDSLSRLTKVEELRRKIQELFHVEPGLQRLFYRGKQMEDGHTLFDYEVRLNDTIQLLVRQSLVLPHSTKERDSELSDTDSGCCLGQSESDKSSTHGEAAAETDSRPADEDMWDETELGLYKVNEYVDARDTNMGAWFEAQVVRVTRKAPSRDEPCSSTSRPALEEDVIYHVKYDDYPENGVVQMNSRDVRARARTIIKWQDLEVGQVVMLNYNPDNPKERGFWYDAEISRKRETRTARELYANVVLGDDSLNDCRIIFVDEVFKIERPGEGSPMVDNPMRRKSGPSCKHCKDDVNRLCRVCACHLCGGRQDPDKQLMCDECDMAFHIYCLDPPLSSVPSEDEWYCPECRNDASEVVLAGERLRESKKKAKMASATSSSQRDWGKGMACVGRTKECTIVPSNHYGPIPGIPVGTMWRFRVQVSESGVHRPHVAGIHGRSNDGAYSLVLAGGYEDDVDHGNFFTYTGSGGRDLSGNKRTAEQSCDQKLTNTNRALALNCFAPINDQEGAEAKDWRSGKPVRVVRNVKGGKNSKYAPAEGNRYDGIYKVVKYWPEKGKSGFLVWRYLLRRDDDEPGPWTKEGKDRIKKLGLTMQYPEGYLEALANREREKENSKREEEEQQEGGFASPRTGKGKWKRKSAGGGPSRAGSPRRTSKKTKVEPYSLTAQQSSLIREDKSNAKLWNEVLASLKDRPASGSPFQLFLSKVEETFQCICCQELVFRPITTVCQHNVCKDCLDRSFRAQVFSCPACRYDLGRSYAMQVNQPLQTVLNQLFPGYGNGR
UniProt O94763, whole entry: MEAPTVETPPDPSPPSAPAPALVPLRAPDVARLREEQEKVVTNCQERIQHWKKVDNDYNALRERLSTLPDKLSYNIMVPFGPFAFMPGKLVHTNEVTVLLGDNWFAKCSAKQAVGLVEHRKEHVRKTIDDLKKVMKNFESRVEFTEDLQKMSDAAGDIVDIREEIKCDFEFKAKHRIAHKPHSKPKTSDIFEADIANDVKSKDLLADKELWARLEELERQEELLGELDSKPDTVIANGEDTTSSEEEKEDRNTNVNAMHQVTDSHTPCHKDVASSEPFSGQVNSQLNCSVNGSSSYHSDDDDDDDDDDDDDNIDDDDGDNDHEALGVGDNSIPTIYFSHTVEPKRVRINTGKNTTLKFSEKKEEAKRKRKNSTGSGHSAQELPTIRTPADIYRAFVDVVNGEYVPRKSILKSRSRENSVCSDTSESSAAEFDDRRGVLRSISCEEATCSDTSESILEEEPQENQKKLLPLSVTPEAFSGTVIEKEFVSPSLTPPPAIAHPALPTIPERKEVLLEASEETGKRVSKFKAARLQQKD
UniProt P61088: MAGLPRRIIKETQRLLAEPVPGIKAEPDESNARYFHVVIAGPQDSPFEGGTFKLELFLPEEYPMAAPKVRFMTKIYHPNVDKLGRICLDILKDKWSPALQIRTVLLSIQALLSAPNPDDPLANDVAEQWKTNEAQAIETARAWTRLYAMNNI

Compound: Nc1nc2c(ncn2[C@@H]2O[C@H](COP(=O)(O)OP(=O)(O)OP(=O)(O)O)[C@@H](O)[C@H]2O)c(=O)[nH]1
Test: dose-dependent thermal stabilisation call (2D-TPP, DLPTP, 10% FDR) (binary (1 = stabilised)); higher = stabilised by the compound
Conditions: system: Jurkat gel-filtered lysate; concentration range 1-500 µM
Description: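 2D thermal proteome profiling in gel-filtered Jurkat E6.1 lysate (2 mg/ml) treated with NaGTP (0, 1, 10, 100, 500 uM) for 10 min at room temperature, then heated 3 min at one of 12 temperatures (42-63.9 C). Soluble protein was quantified by TMT10 MS. The value is the DLPTP call of the paper: dose-dependent thermal stabilisation over all temperatures at 10% FDR (F-test of a dose-response against a flat model); one experiment, one call per tested protein.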

| Target | dose-dependent thermal stabilisation call |
| --- | --- |
| ZBED3 (UniProt Q96IU2) | inactive: 0 |
| USP9X (UniProt Q93008) | active: 1 |
| WAPL (UniProt Q7Z5K2) | inactive: 0 |
| UBQLN1 (UniProt Q9UMX0) | inactive: 0 |
| WDR54 (UniProt Q9H977) | inactive: 0 |
| XRCC5 (UniProt P13010) | inactive: 0 |
| VIM (UniProt P08670) | inactive: 0 |
| UBFD1 (UniProt O14562) | inactive: 0 |
| VPS72 (UniProt Q15906) | inactive: 0 |
| UGDH (UniProt O60701) | active: 1 |
| VAPB (UniProt O95292) | inactive: 0 |
| USF2 (UniProt Q15853) | inactive: 0 |
| WDR12 (UniProt Q9GZL7) | inactive: 0 |
| ZBTB11 (UniProt O95625) | inactive: 0 |
| UFD1 (UniProt Q92890) | inactive: 0 |
| WDR4 (UniProt P57081) | inactive: 0 |
| UMPS (UniProt P11172) | inactive: 0 |
| UNC45A (UniProt Q9H3U1) | inactive: 0 |
| WDR89 (UniProt Q96FK6) | inactive: 0 |
| WIPI2 (UniProt Q9Y4P8) | inactive: 0 |

Some of the entries so far, tab-delimited:
Target	dose-dependent thermal stabilisation call
VIM (UniProt P08670)	inactive: 0
UGDH (UniProt O60701)	active: 1
UMPS (UniProt P11172)	inactive: 0

Following part.

| Target | dose-dependent thermal stabilisation call |
| --- | --- |
| WTAP (UniProt Q15007) | inactive: 0 |
| WDR77 (UniProt Q9BQA1) | inactive: 0 |
| WAC (UniProt Q9BTA9) | inactive: 0 |
| ZBTB21 (UniProt Q9ULJ3) | inactive: 0 |
| ZDHHC5 (UniProt Q9C0B5) | inactive: 0 |
| UNC119B (UniProt A6NIH7) | active: 1 |
| UBE2D3 (UniProt P61077) | inactive: 0 |
| UBE3D (UniProt Q7Z6J8) | inactive: 0 |
| ZCCHC8 (UniProt Q6NZY4) | inactive: 0 |
| USP11 (UniProt P51784) | active: 1 |
| WRAP53 (UniProt Q9BUR4) | inactive: 0 |
| XPO7 (UniProt Q9UIA9) | inactive: 0 |
| XAF1 (UniProt Q6GPH4) | inactive: 0 |
| VBP1 (UniProt P61758) | inactive: 0 |
| VPS4B (UniProt O75351) | active: 1 |
| WDR47 (UniProt O94967) | inactive: 0 |
| UHRF1 (UniProt Q96T88) | inactive: 0 |
| ZC3HAV1L (UniProt Q96H79) | inactive: 0 |
| URI1 (UniProt O94763) | inactive: 0 |
| UBE2N (UniProt P61088) | inactive: 0 |
